Source: PubChem BioAssay AID1671195 (Yale University, 2021)

- Test: 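Knockdowns that increase or decrease uptake of fluorescent LDL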 (primary screen)
- Cell system: human Huh7 hepatoma cells
- Knock-down reagent: siRNA pool against human genes, 18 nM
- Time to read-out: about 2 to 2.5 days of knockdown, then 8 h LDL uptake
- Challenge: DiI-labelled LDL at 30 µg/ml for 8 h, in lipoprotein-deficient serum medium
- Measured: 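Per-cell DiI-LDL intensity by automated imaging; well means scaled to the plate median and given as a robust z-score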
- Direction: robust z-score: higher = more LDL uptake after knockdown
- Call rule: 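Active when two or more replicates show a robust z-score above 2 or below -2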
Here is one part, drawn at random, of about 22,000 deposited reagents. Of all reagents, about 1,510 (6.9%) were called active. 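Active includes knockdowns raising or lowering LDL uptake; positive z-scores mean more uptake, negative mean less.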

MFSD6L gave robust z-score, replicate 1 = -0.373; robust z-score, replicate 2 = 1.13; robust z-score, replicate 3 = -0.255; inactive.
Against TSSK2, the entry reads robust z-score, replicate 1 = 1.78; robust z-score, replicate 2 = 0.606; robust z-score, replicate 3 = 0.052; inactive.
Against VDAC3 the deposit lists robust z-score, replicate 1 = -2.13; robust z-score, replicate 2 = -2.07; robust z-score, replicate 3 = -2.21; active.
Against PPID, the entry reads robust z-score, replicate 1 = 1.12; robust z-score, replicate 2 = 1.88; robust z-score, replicate 3 = 1.44; inactive.
After knock-down of POLR2C, the record shows robust z-score, replicate 1 = -0.992; robust z-score, replicate 2 = -1.34; robust z-score, replicate 3 = -1.39; inactive.
Against ZNF850, the entry reads robust z-score, replicate 1 = 0.481; robust z-score, replicate 2 = 0.931; robust z-score, replicate 3 = 0.0813; inactive.
After knock-down of KDM4A, the record shows robust z-score, replicate 1 = 1.11; robust z-score, replicate 2 = 1.13; robust z-score, replicate 3 = -0.936; inactive.
For LINC01205 the deposit lists robust z-score, replicate 1 = 0.123; robust z-score, replicate 2 = -0.279; robust z-score, replicate 3 = -0.372; inactive.
With knock-down of MLF2, the screen gave robust z-score, replicate 1 = -1.61; robust z-score, replicate 2 = 0.424; robust z-score, replicate 3 = -0.632; inactive.
For ADCK5, the entry reads robust z-score, replicate 1 = 0.535; robust z-score, replicate 2 = 0.375; robust z-score, replicate 3 = 0.446; inactive.

2 consecutive records already listed:
LINC01205 — robust z-score, replicate 1 = 0.123; robust z-score, replicate 2 = -0.279; robust z-score, replicate 3 = -0.372; call = inactive
MLF2 — robust z-score, replicate 1 = -1.61; robust z-score, replicate 2 = 0.424; robust z-score, replicate 3 = -0.632; call = inactive

Additional reagents follow:
After knock-down of LOC392173 (retired record) the results were robust z-score, replicate 1 = 1.24; robust z-score, replicate 2 = 1.29; robust z-score, replicate 3 = 1.39; inactive.
LACTB2 showed robust z-score, replicate 1 = -1.54; robust z-score, replicate 2 = -0.186; robust z-score, replicate 3 = -0.193; inactive.
For PRPF19 the deposit lists robust z-score, replicate 1 = 2.88; robust z-score, replicate 2 = 2.88; robust z-score, replicate 3 = 2.61; active.
Knock-down of GABPB2 resulted in: robust z-score, replicate 1 = -1.01; robust z-score, replicate 2 = -0.271; robust z-score, replicate 3 = -0.00633; inactive.
Against SRSF7, the values are robust z-score, replicate 1 = -0.549; robust z-score, replicate 2 = -0.374; robust z-score, replicate 3 = -0.37; inactive.
MAP2K7 showed robust z-score, replicate 1 = -0.149; robust z-score, replicate 2 = -1.15; robust z-score, replicate 3 = -0.779; inactive.
